Here are results for 3 substances from paper PMC11137995.

The chains behind the UniProt entries cited, without tags or fusion partners. Where a name states a change or a piece, a line headed by the entry shows the natural chain unless it says otherwise.
UniProt P45973: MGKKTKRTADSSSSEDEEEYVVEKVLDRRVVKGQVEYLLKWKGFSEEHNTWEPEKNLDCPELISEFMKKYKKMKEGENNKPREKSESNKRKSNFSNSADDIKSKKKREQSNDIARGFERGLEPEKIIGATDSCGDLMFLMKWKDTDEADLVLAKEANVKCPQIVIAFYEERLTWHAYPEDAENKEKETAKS
UniProt Q13547: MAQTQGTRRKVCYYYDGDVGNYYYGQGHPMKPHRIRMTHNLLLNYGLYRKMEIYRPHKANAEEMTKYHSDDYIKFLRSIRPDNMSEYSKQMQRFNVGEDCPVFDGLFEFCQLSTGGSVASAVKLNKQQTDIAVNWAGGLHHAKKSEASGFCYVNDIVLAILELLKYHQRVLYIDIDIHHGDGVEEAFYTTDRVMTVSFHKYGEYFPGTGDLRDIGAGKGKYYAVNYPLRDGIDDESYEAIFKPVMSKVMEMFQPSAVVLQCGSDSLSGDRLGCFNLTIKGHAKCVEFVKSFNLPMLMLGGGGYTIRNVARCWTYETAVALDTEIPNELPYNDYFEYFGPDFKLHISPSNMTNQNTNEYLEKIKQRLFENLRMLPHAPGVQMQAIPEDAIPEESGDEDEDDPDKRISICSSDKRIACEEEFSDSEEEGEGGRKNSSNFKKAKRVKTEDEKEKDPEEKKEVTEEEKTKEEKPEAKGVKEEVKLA
UniProt P42224: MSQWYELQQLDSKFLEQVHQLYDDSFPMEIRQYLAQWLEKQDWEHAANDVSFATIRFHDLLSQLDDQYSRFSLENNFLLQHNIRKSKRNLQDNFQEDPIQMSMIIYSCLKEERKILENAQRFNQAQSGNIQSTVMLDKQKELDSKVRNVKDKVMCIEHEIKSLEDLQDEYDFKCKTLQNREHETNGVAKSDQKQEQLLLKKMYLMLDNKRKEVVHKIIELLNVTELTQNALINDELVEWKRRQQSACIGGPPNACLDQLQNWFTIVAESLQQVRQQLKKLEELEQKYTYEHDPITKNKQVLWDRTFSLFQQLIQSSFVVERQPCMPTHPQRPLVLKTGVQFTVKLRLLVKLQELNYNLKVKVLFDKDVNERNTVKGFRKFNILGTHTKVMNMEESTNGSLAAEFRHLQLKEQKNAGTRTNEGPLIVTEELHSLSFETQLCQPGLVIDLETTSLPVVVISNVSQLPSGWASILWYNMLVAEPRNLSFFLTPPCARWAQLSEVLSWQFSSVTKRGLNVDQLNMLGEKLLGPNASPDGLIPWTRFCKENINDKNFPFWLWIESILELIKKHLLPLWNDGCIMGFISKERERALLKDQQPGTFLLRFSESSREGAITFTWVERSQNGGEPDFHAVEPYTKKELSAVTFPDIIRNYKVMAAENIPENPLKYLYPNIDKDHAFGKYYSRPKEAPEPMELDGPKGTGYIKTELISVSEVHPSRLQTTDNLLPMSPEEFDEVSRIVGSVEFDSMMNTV

The target in test [1] is full-length CBX5 (HA tagged, NM_001127322.1), encoding Heterochromatin Protein 1α (human) (UniProt P45973). The test can be described thus: co-IP; exogenous co-IP: HEK293T cells transfected with expression vectors carrying full-length or truncated coding sequences; IP buffer 20 mM Tris-HCl pH 7.4, 150 mM NaCl, 1 mM EDTA, 1% NP-40; primary antibodies and protein A + G agarose beads; western blot. For orientation: A western blot detects proteins with antibodies after separation by electrophoresis.

The target of test [2] is HP1α, endogenous in ICCA cells (human (endogenous in human ICCA cell lines)) (UniProt P45973). Briefly: co-IP; endogenous co-IP: wild-type ICCA cells without any specific treatment; IP buffer 20 mM Tris-HCl pH 7.4, 150 mM NaCl, 1 mM EDTA, 1% NP-40; primary antibodies and protein A + G agarose beads; western blot.
Test [3] addresses HP1α as used in Figures S3C, 5F and S3F (human) (UniProt P45973). Briefly: co-IP; HP1α with STAT1 (Figure S3C); the text tells neither the cells nor whether exogenous or endogenous; co-IP is the only such method in the methods.

Results are given in words; binding and its absence hold for the method and conditions named. Binding seen in cells or lysates may run through a third protein. Some results given as binding are weak or reduced against the parent protein; the word gives no strength.

For “full-length HDAC1 (Flag tagged, NM_004964.3) (from UniProt Q13547 1-482) (enzyme)”, in test [1], the binding entry is reported as “binds”.

With “HDAC1, endogenous in ICCA cells (from UniProt Q13547 1-482) (enzyme)”, the binding entry in test [2] is given as “binds”.

In the case of “Signal Transducer and Activator of Transcription 1 (from UniProt P42224 1-750)”, the binding result in test [3] is given as “no binding”.
